In CN114316057A:
No constants are given. Whether binding was seen depends on the method and setting. Some binding calls cover weakened binding; strength is not graded here.

Experiments:
[1] = molecular target: T1, TOM20-Mouse 胞质结构域 (mouse) (UniProt Q9DCC8); test: SPR (Biacore)
T1 sequence (looked up): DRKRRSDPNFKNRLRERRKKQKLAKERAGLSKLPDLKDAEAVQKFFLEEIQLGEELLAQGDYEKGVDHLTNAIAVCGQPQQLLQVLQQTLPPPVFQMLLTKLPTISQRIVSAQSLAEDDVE

[2] = molecular target: T1, TOM20-Mouse 胞质结构域 (mouse); test: Biacore (Figure 3C legend)

B1: P2B7号纳米抗体 (VHH, not shown: large carriers)
VHH: AVQLVESGGGLVQAGGSLRLSCVASGSTFSNFVMGWYRQAPGKQRVLVATISSGGSTNYADSVKGRFTISRDNTKNTVYLQMNSLKPEDTSVYYCNARRGSVIVPTLAYDYWGQGTQVTVSS
With B1 the binding [1] was “binds” and the binding [2] was “binds”.
